The target of assay [1] is soluble human IL-6 receptor (human) (UniProt P08887). As to the kind of experiment: SPR (Biacore T100), antibody captured on Protein A/G, pH 7.4, 37°C. Background: Surface plasmon resonance follows binding to a sensor surface in real time, without labels.
Assay [2] shares this target. In words: SPR (Biacore T100), antibody captured on Protein A/G on a CM5 chip, human IL-6 receptor injected for 3 min, […] CaCl2, pH 7.4, 37 C.
Assay [3] shares this target. In words: SPR (Biacore T100), antibody captured on Protein A/G on a CM5 chip, human IL-6 receptor injected for 3 min, 3 uM CaCl2, pH 7.4, 37 C.
For assay [4] the target is unchanged. In words: SPR (Biacore T100), antibody captured on Protein A/G, […] Ca, 37°C.
For assay [5] the target is unchanged. In words: SPR (Biacore T100), about 300 RU of antibody captured on Protein A/G on a CM5 chip, human IL-6 receptor injected for 3 min, pH 7.4, […] CaCl2, 37 C.

By UniProt entry, the sequences of proteins in these tests, tags left out. Where a name states a change or a piece, a line headed by the entry shows the natural chain unless it says otherwise.
UniProt P08887: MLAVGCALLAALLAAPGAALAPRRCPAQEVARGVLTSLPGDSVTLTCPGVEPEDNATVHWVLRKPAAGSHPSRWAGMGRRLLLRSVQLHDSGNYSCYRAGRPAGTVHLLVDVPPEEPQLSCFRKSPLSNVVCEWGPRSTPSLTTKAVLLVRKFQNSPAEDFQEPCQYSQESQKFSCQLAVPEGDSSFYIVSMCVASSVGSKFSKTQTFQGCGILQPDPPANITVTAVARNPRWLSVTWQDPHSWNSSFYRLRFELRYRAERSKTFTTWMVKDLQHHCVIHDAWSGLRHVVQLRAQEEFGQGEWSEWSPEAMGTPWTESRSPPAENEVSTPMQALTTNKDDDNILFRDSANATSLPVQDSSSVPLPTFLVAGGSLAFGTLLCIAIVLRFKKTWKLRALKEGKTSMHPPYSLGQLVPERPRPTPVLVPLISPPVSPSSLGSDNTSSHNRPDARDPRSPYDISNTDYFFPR

In patent publication US20240279325A1 one finds binding data, which are given here for 2 molecules.

Substitutions are numbered along the chain they refer to. No constants are given. Whether binding was seen depends on the method and setting. A result given as binding can be weak or reduced; the word gives no strength.

B1: 6RC1IgG_012 (antibody, V domains shown)
VH: QVQLVQSGAEVKKPGASVKVSCKASGYTFTSYGISWVRQAPGQGLEWMGWISAYNGNTNYAQKLQGRVTMTTDTSTSTAYMELRSLRSDDTAVYYCARATYYYDSSAPAFDIWGQGTMVTVSS
VL: DIQMTQSPSSLSASVGDRVTITCRASQSIEDDLAWYQQKPGKAPKLLIYEASTLQSGVPSRFSGSGSGTDFTLTISSLQPEDFATYYCQQHDDSPLTFGQGTKVEIKR
Take B1: the binding entry in assay [1], in assay [2] and in assay [3] was “binds” in each case.

B2: 6RpH #03 (antibody, human IgG1, kappa, V domains shown)
VH: EVQLVQSGGGLVQPGGSLRLSCAASGFTFSNAWMIWVRQAPGKGLEWVGRIKSKVDGGTTDYAAPVKGRFTISRDDSKNTLYLQMDSLKTEDTAVYYCVADVPASNPYGFDYWGQGTLVTVSS
VL: B1 VL with E30N, D31S, D32H, A34N, E50D, T53H, D92N, D93N, S94Y
As to B2, the binding entry in assay [4] and in assay [5] was “binds” throughout.
